Measured values taken from patent publication US11484576B2, “Methods of promoting corticospinal neuronal outgrowth in neuronal lesions using a pro-regenerative human osteopontin fragment” (THE CHILDREN'S MEDICAL CENTER CORPORATION, priority 2017, dated 2022).
Some of these results come from one statement about several compounds together.

Tested on: mice with T10 lateral hemisection
Assay: Irregular ladder walking after spinal cord T10 lateral hemisection
Format: in vivo, mouse
Conditions: pilot experiment; i.p.; 4AP 1 and 3 mg/kg, 4AP-MeOH 1 mg/kg
Procedure: Injury Models. […] Briefly, a midline incision was made over the thoracic vertebrae, followed by a T10 laminectomy. The unilateral hemisection was then performed carefully using both scalpel and micro-scissors, avoiding, to the greatest extent, the damage of the spinal cord dura. The muscle layers were then sutured and the skin was secured with wound clips. All mice received post hoc histological analysis and those with spared CST axons (incomplete lateral hemisection) or with significant less CST axons on the contra-lesional side (over lateral hemisection) at the lumbar spinal cord (L3), exemplified in FIG. 9A, were excluded for behavioral analysis.
Virus and Protein Injection.
Irregular Ladder Walking. […] Briefly, the ladder was elevated 30 cm above the ground. […] All trials were video recorded (Hotshot e64, 100 fps) and paw placement was analyzed twice by blinded observers. […] All other steps were recorded as errors, which included two types: 1) Miss: when crossing the ladder, the forelimb/hindlimb either completely miss the rung or contact the rung with the wrist/heel instead of the paw; 2) Slip: when crossing the ladder, the mice use a few digits instead of the paw to place on the rungs, causing the subsequent slip on the rungs. The results were expressed as both percentage of total errors and percentage of different placement categories (hit, miss and slip). […]

SMILES: Nc1ccncc1 [4-AP, 4-aminopyridine]
- time of maximal effects post systematic administration: 1 to 3 h
